These are yes or no findings as the source states them, for the method shown. Binding seen in cells or lysates may run through a third protein. Some binding calls cover weakened binding; strength is not graded here. Tags and fused reporters may be left off the sequences shown.
Molecular target: EGFP-Rab27a (UniProt P51159)
Experiment: FRET or BRET; TR-FRET: cell lysates obtained by nitrogen cavitation (intact organelles) expressing Myc-JFC1 or EGFP-Rab27a and mCherry-WASH were mixed and incubated with terbium-conjugated anti-Myc antibody for 10 min; excitation 340 nm; emission ratio 520 nm/490 nm; with or without WASH

By UniProt entry, the sequences of proteins in these tests, tags left out.
UniProt P51159: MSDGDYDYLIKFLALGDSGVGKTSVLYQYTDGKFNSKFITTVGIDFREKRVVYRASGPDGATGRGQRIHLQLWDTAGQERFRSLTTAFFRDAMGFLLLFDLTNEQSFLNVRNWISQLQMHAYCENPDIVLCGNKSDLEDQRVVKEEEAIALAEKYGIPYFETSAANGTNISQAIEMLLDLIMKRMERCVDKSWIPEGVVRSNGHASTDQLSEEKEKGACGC

B1: Myc-JFC1 (protein, UniProt Q8IYJ3 1-562)
chain: MPQRGHPSQEGLWALPSLPMAHGPKPETEGLLDLSFLTEEEQEAIAGVLQRDARLRQLEEGRVSKLRASVADPGQLKILTGDWFQEARSQRHHNAHFGSDLVRASMRRKKSTRGDQAPGHDREAEAAVKEKEEGPEPRLTIDEAPQERLRETEGPDFPSPSVPLKASDPEEASQAQEDPGQGDQQVCAEEADPELEPASGGEQEPRPQQAQTKAASQILENGEEAPGPDPSLDRMLSSSSSVSSLNSSTLSGSQMSLSGDAEAVQVRGSVHFALHYEPGAAELRVHVIQCQGLAAARRRRSDPYVKSYLLPDKQSKRKTAVKKRNLNPVFNETLRYSVPQAELQGRVLSLSVWHRESLGRNIFLGEVEVPLDTWDWGSEPTWLPLQPRVPPSPDDLPSRGLLALSLKYVPAGSEGAGLPPSGELHFWVKEARDLLPLRAGSLDTYVQCFVLPDDSQASRQRTRVVRRSLSPVFNHTMVYDGFGPADLRQACAELSLWDHGALANRQLGGTRLSLGTGSSYGLQVPWMDSTPEEKQLWQALLEQPCEWVDGLLPLRTNLAPRT
- binding: binds

Reference: article PMC9492659
